Data: article PMC9898264

Sequences of proteins named here, by UniProt entry; tags and fusion partners are left off. Residues count along the entry.
UniProt Q68FX9, residues 37-310: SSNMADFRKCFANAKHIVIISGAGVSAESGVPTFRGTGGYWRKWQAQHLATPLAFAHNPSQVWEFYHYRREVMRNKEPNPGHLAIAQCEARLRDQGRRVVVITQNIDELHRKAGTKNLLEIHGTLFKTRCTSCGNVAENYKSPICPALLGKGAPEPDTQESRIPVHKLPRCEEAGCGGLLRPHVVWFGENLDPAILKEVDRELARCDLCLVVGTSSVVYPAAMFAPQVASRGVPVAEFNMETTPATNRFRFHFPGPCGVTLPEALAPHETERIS
UniProt Q9JM53, residues 102-612: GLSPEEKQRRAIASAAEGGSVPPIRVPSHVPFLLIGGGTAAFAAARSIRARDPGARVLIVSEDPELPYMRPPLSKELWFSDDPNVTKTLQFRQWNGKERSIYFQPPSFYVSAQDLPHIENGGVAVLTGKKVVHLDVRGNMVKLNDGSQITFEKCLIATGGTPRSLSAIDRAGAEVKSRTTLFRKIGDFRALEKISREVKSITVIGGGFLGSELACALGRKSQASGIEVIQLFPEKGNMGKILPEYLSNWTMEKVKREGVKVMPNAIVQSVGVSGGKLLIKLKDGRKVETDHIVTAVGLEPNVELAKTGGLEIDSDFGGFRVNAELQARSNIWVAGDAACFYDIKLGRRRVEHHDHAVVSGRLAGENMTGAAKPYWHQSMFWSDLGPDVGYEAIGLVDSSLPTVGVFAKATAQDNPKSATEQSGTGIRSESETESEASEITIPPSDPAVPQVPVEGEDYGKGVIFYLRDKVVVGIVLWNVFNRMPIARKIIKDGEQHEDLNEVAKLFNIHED

Biological target: Sirtuin 5 (SIRT5) (rat (endogenous in rat NP cells)) (UniProt Q68FX9)
Experiment: affinity purification with mass spectrometry; co-immunoprecipitation products of endogenous SIRT5 from rat NP cells, separated by HPLC, mass spectra searched with MaxQuant

For “apoptosis-inducing factor mitochondrion-associated 1 (AIFM1) (from UniProt Q9JM53 102-612)”, the binding was “binds”.

These are yes or no findings as the source states them, for the method shown. Binding seen in cells or lysates may run through a third protein. A yes stands for co-enrichment or nearness to the bait. Other partners may have been found.
